Structures can show the parent of a compound that is named as a salt. The list shows a part of the results. This data set is noisy: repeats of one test often differ as much as different tests do.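 Human fetal ventral-midbrain neural progenitor line ReNCell VM, differentiated without mitogens. Images stained for doublecortin (early neurons) or tyrosine hydroxylase (dopaminergic neurons) were scored by blinded raters against untreated wells (0 = no change). Repeats and both raters were averaged, and compounds averaging 2 or higher were picked as hits for retesting.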
Tested on: ReNCell VM
Experiment: neuronal differentiation score (DCX+ cell fraction vs untreated, manual image score) (score (-3 to 3)); higher = more neuronal differentiation
Settings: library: Tocriscreen; 2 uM; 2 weeks

Neuronal differentiation score, inactive:
FC(F)(F)c1cccc(-c2noc(-c3cc(-c4ccccc4)c(C(F)(F)F)s3)n2)c1 0, CCCn1c(=O)[nH]c2nc(-c3ccc(S(=O)(=O)O)cc3)[nH]c2c1=O 0, N[C@H](C(=O)O)c1ccc(O)c(C(=O)O)c1 [(S)-3-Carboxy-4-hydroxyphenylglycine] 0, Nc1ncn([C@H]2C[C@H](O)[C@@H](CO)O2)c(=O)n1 [Decitabine] 0, Cc1ccc(OCC(O)C(C)NC(C)C)c2c1CCC2 (stereo not drawn) [ICI-118,551 hydrochloride] 0, N#Cc1c(O)c2c(-c3ccc(-c4ccccc4O)cc3)csc2[nH]c1=O 0, Cc1[nH]c(/C=C2\C(=O)Nc3ccccc32)c(C)c1CCC(=O)O 0, Nc1nc(NCCc2ccc(O)cc2)nc2nc(-c3ccco3)nn12 0

From the supplement of paper PMC4635364
